Source: paper doi:10.1101/2022.08.09.503213 (bioRxiv, 2022)
These are yes or no findings as the source states them, for the method shown. Some results given as binding are weak or reduced against the parent protein; the word gives no strength. Where a sequence is shown, tags or fusion partners need not be part of it. Each block holds one binder with its values, some of them ahead of it.

The chains behind the UniProt entries cited, without tags or fusion partners. Where a name states a change or a piece, a line headed by the entry shows the natural chain unless it says otherwise.
UniProt Q96RY7, whole entry: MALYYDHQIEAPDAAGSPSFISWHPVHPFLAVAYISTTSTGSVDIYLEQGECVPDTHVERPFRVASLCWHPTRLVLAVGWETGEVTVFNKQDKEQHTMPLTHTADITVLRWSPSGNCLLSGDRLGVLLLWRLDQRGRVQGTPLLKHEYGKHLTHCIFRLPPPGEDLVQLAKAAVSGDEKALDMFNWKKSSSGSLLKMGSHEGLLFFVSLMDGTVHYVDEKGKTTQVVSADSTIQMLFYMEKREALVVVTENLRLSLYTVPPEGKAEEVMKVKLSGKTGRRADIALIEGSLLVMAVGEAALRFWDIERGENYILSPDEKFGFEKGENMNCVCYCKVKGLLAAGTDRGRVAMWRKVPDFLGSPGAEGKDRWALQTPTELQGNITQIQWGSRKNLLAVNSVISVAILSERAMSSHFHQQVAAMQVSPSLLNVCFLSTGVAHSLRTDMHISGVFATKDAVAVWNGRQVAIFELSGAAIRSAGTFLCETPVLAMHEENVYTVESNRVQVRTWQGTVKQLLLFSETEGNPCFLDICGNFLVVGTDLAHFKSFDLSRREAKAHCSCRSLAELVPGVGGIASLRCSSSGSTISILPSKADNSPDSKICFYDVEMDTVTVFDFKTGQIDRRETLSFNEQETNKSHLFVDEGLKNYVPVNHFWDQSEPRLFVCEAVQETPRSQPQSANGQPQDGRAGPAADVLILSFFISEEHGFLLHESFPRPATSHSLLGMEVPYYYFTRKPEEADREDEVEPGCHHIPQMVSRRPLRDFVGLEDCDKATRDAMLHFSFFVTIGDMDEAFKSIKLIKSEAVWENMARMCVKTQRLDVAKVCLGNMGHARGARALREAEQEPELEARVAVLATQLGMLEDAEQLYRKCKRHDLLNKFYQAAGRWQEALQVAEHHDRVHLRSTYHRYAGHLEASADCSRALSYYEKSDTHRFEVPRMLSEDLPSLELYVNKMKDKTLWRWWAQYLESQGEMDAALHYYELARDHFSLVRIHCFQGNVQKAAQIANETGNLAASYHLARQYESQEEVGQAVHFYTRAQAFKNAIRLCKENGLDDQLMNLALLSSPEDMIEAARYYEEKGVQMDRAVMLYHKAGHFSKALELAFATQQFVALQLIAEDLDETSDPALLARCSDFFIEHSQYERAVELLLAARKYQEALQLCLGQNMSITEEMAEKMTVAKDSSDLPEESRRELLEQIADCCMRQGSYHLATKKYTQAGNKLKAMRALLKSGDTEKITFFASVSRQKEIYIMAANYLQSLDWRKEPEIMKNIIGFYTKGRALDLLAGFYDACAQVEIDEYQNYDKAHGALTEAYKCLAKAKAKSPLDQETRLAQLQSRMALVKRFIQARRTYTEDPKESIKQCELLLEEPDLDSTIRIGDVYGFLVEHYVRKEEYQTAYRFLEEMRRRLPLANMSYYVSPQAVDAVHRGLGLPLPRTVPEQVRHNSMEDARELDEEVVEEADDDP

Experiments:
[1] = target: IFT140 from ^ZZIFT140 (N-terminal ZZ-tag) (human) (UniProt Q96RY7); test: cryo-EM structure
[2] = target: T1, IFT122 (untagged) (human) (UniProt Q9HBG6); test: cryo-EM structure
T1 sequence: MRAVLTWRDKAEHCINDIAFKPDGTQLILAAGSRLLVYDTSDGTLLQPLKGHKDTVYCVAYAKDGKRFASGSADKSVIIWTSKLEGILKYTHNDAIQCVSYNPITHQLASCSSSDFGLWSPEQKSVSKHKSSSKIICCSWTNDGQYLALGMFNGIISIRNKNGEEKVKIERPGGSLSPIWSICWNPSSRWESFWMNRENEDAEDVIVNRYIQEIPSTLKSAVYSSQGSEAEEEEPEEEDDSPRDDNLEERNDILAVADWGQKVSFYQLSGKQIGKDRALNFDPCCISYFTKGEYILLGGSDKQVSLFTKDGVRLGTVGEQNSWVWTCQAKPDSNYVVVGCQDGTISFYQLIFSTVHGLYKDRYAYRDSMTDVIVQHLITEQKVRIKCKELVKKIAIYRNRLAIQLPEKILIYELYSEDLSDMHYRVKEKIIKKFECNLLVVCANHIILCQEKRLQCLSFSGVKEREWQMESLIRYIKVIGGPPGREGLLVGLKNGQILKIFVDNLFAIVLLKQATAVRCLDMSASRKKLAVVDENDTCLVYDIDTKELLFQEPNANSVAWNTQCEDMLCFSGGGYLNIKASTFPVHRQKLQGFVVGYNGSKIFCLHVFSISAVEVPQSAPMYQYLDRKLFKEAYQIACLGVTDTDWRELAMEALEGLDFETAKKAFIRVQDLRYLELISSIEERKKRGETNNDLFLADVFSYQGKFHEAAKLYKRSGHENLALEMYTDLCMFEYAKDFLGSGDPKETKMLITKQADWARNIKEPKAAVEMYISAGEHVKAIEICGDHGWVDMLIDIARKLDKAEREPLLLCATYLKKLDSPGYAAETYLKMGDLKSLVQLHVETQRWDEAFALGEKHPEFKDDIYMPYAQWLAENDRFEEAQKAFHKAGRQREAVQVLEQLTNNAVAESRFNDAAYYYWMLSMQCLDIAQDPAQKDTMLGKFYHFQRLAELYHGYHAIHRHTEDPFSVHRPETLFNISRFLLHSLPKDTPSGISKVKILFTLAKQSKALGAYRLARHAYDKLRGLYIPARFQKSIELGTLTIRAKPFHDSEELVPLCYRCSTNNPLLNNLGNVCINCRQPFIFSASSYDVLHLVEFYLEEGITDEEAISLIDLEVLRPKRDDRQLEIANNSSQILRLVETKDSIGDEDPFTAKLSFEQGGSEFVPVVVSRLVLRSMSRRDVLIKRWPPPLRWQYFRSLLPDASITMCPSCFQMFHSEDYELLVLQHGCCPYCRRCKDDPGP

binding [1]: binds
B1: IFT144ΔN^FLAG (IFT144 lacking the N-terminal β-propeller domain, residues 2–349 inclusive) (domain or fragment, UniProt Q8NEZ3)
chain: MLPILGDACSTRIAYLTSLLEVTVANPVEGELPITVSVDVEPNFVAVGLYHLAVGMNNRAWFYVLGENAVKKLKDMEYLGTVASICLHSDYAAALFEGKVQLHLIESEILDAQEERETRLFPAVDDKCRILCHALTSDFLIYGTDTGVVQYFYIEDWQFVNDYRHPVSVKKIFPDPNGTRLVFIDEKSDGFVYCPVNDATYEIPDFSPTIKGVLWENWPMDKGVFIAYDDDKVYTYVFHKDTIQGAKVILAGSTKVPFAHKPLLLYNGELTCQTQSGKVNNIYLSTHGFLSNLKDTGPDELRPMLAQNLMLKRFSDAWEMCRILNDEAAWNELARACLHHMEVEFAIRVYRRIGNVGIVMSLEQIKGIEDYNLLAGHLAMFTNDYNLAQDLYLASSCPIAALEMRRDLQHWDSALQLAKHLAPDQIPFISKEYAIQLEFAGDYVNALAHYEKGITGDNKEHDEACLAGVAQMSIRMGDIRRGVNQALKHPSRVLKRDCGAILENMKQFSEAAQLYEKGLYYDKAASVYIRSKNWAKVGDLLPHVSSPKIHLQYAKAKEADGRYKEAVVAYENAKQWQSVIRIYLDHLNNPEKAVNIVRETQSLDGAKMVARFFLQLGDYGSAIQFLVMSKCNNEAFTLAQQHNKMEIYADIIGSEDTTNEDYQSIALYFEGEKRYLQAGKFFLLCGQYSRALKHFLKCPSSEDNVAIEMAIETVGQAKDELLTNQLIDHLLGENDGMPKDAKYLFRLYMALKQYREAAQTAIIIAREEQSAGNYRNAHDVLFSMYAELKSQKIKIPSEMATNLMILHSYILVKIHVKNGDHMKGARMLIRVANNISKFPSHIVPILTSTVIECHRAGLKNSAFSFAAMLMRPEYRSKIDAKYKKKIEGMVRRPDISEIEEATTPCPFCKFLLPECELLCPGCKNSIPYCIATGRHMLKDDWTVCPHCDFPALYSELKIMLNTESTCPMCSERLNAAQLKKISDCTQYLRTEEEL

binding [2]: binds
B2: IFT139 (from ^ZZ-SNAPIFT139, TEV-cleaved) (protein, UniProt Q7Z4L5 1-1316)
chain: MDSQELKTLINYYCQERYFHHVLLVASEGIKRYGSDPVFRFYHAYGTLMEGKTQEALREFEAIKNKQDVSLCSLLALIYAHKMSPNPDREAILESDARVKEQRKGAGEKALYHAGLFLWHIGRHDKAREYIDRMIKISDGSKQGHVLKAWLDITRGKEPYTKKALKYFEEGLQDGNDTFALLGKAQCLEMRQNYSGALETVNQIIVNFPSFLPAFVKKMKLQLALQDWDQTVETAQRLLLQDSQNVEALRMQALYYVCREGDIEKASTKLENLGNTLDAMEPQNAQLFYNITLAFSRTCGRSQLILQKIQTLLERAFSLNPQQSEFATELGYQMILQGRVKEALKWYKTAMTLDETSVSALVGFIQCQLIEGQLQDADQQLEFLNEIQQSIGKSAELIYLHAVLAMKKNKRQEEVINLLNDVLDTHFSQLEGLPLGIQYFEKLNPDFLLEIVMEYLSFCPMQPASPGQPLCPLLRRCISVLETVVRTVPGLLQTVFLIAKVKYLSGDIEAAFNNLQHCLEHNPSYADAHLLLAQVYLSQEKVKLCSQSLELCLSYDFKVRDYPLYHLIKAQSQKKMGEIADAIKTLHMAMSLPGMKRIGASTKSKDRKTEVDTSHRLSIFLELIDVHRLNGEQHEATKVLQDAIHEFSGTSEEVRVTIANADLALAQGDIERALSILQNVTAEQPYFIEAREKMADIYLKHRKDKMLYITCFREIAERMANPRSFLLLGDAYMNILEPEEAIVAYEQALNQNPKDGTLASKMGKALIKTHNYSMAITYYEAALKTGQKNYLCYDLAELLLKLKWYDKAEKVLQHALAHEPVNELSALMEDGRCQVLLAKVYSKMEKLGDAITALQQARELQARVLKRVQMEQPDAVPAQKHLAAEICAEIAKHSVAQRDYEKAIKFYREALVHCETDNKIMLELARLYLAQDDPDSCLRQCALLLQSDQDNEAATMMMADLMFRKQDYEQAVFHLQQLLERKPDNYMTLSRLIDLLRRCGKLEDVPRFFSMAEKRNSRAKLEPGFQYCKGLYLWYTGEPNDALRHFNKARKDRDWGQNALYNMIEICLNPDNETVGGEVFENLDGDLGNSTEKQESVQLAVRTAEKLLKELKPQTVQGHVQLRIMENYCLMATKQKSNVEQALNTFTEIAASEKEHIPALLGMATAYMILKQTPRARNQLKRIAKMNWNAIDAEEFEKSWLLLADIYIQSAKYDMAEDLLKRCLRHNRSCCKAYEYMGYIMEKEQAYTDAALNYEMAWKYSNRTNPAVGYKLAFNYLKAKRYVDSIDICHQVLEAHPTYPKIRKDILDKARASLRP
